HELM strings list residues between dots; [ac] is acetyl, [am] amide, other brackets name non-standard units.
Experiment: general procedure: Fmoc solid-phase peptide synthesis; Rink-Amide methylbenzylhydryl (MBHA) resin; DIC/HOBt
Details: whole synthesis, analytical reversed phase HPLC

Substance	final HPLC purity
HYNIC-(4-Cl)-Phe-Cyclo(D-Cys-Tyr-D-Trp-Lys-Thr-Cys)-D-Tyr-NH2	97%
PEPTIDE1{[DOTA].[4ClPhe].[dC].Y.[dW].K.T.C.[dY].[am]}$PEPTIDE1,PEPTIDE1,3:R3-8:R3$$$V2.0	99.5%
PEPTIDE1{[N4].[4ClPhe].[dC].Y.[dW].K.T.C.[dY].[am]}$PEPTIDE1,PEPTIDE1,3:R3-8:R3$$$V2.0	98%

Reference: PMC6070450 (EJNMMI Research, 2018)
